Protein sequences, listed by entry. Tags and fused reporters are not part of them.
UniProt A1Z9J5, entry or part of it: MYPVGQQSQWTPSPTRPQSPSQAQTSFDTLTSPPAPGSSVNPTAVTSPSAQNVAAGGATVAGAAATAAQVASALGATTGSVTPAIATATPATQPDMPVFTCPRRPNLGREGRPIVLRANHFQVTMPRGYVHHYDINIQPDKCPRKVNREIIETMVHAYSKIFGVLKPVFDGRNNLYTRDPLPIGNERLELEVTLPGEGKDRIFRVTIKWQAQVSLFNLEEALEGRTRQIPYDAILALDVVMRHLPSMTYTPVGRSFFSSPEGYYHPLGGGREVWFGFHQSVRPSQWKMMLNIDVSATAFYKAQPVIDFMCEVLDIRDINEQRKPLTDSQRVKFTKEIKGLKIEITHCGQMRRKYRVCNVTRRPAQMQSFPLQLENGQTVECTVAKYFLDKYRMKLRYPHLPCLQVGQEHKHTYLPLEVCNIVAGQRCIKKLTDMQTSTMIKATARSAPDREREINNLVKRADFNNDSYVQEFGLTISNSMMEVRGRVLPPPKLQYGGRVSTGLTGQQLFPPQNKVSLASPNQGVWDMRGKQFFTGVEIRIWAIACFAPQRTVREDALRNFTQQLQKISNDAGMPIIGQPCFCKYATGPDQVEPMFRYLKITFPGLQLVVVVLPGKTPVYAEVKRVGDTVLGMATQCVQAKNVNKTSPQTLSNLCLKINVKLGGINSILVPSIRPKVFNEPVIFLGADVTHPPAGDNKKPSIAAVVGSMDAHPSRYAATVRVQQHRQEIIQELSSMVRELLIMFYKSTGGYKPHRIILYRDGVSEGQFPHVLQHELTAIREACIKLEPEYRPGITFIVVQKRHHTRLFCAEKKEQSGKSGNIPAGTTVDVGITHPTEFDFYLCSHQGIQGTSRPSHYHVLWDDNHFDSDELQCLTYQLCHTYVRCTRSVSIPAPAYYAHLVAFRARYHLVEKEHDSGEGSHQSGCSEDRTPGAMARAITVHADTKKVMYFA

In PMC12905440:

Assays:
[1] = biological target: Ago1 (RISC) (UniProt A1Z9J5); test: double-filter binding; conditions: stoichiometric titration, filter binding: 25 mM HEPES-KOH pH 7.9, 110 mM KOAc, 3.5 mM Mg(OAc)2, 2 mM DTT, 25 C, protein in a lysate after overexpression, protein details: FLAG, label: 5' 32P
[2] = biological target: FLAG-Ago1 (RISC) (Drosophila melanogaster) (UniProt A1Z9J5); test: RNA Bind-n-Seq (filter binding, sequencing, MLE); conditions: guide 5' phosphate, 20 mM HEPES-KOH pH 7.9, 100 mM potassium acetate, 3.5 mM magnesium acetate, 0.05% CHAPS, 2 mM DTT, 8% glycerol, 0.05 ug/ul BSA, 0.01 mg/ml yeast tRNA, 100 nM RNA library, recombinant protein, protein details: FLAG, only the motif is given
[3] = biological target: Ago1 (RISC) (UniProt A1Z9J5); test: RBNS; conditions: RBNS: 20 mM HEPES-KOH pH 7.9, 100 mM KOAc, 3.5 mM Mg(OAc)2, 0.05% CHAPS, 2 mM DTT, 8% glycerol, BSA, tRNA, 25 C, 2 h, protein in a lysate after overexpression, protein details: FLAG, letters put together from the description

“AAAAAAAAAAAAAUUUUUGAUCUCUAAAU / UGAGAUCAUUUUGAAAGCUGAUU [bantam / quantification target]”: binds ([1]; bantam guide).
“ACCUCA / UGAGGUAGUAGGUUGUAUAGU [let-7 / 6mer-A1]” gave a Kd ([2]; let-7 guide) of 0.142 nM and a Kd ([3]; let-7 guide) of 0.092 nM.
With “AUCUCA / UGAGAUCAUUUUGAAAGCUGAUU [bantam / 6mer-A1]” the Kd ([2]; bantam guide) was 1.1 nM.
For “CCGUCC / UGGACGGAGAACUGAUAAGGGC [miR-184 / 6mer]”, the Kd ([2]; miR-184 guide) was 0.084 nM.
“CCGUCCA / UGGACGGAGAACUGAUAAGGGC [miR-184 / 7mer-A1]” was tested, and the Kd ([2]; miR-184 guide) was 0.048 nM and the Kd ([3]; miR-184 guide) was 0.037 nM.
With “CGUCCA / UGGACGGAGAACUGAUAAGGGC [miR-184 / 6mer-A1]” the Kd ([2]; miR-184 guide) was 0.765 nM.
Work on “CUACCU / UGAGGUAGUAGGUUGUAUAGU [let-7 / 6mer-m8]” yielded a Kd ([2]; let-7 guide) of 0.439 nM and a Kd ([3]; let-7 guide) of 0.439 nM.
Sequence “CUACCUC / UGAGGUAGUAGGUUGUAUAGU [let-7 / 7mer-m8]” has a Kd ([2]; let-7 guide) of 0.01 nM.
“CUACCUCA / UGAGGUAGUAGGUUGUAUAGU [let-7 / 8mer]” showed a Kd ([3]; let-7 guide) of 0.00454 nM.
Work on “CUGUGA / CAUCACAGUCUGAGUUCUUGC [miR-11 / 6mer-m8]” yielded a Kd ([2]; miR-11 guide) of 0.418 nM.
“CUGUGAU / CAUCACAGUCUGAGUUCUUGC [miR-11 / 7mer-m8]” was tested, and the Kd ([2]; miR-11 guide) was 0.084 nM.
“CUGUGAUA / CAUCACAGUCUGAGUUCUUGC [miR-11 / 8mer]” gave a Kd ([2]; miR-11 guide) of 0.018 nM.
“GAAAAAAAAAAAAAAAAUCCGUCCUAAAU / UGGACGGAGAACUGAUAAGGGC [miR-184 / quantification target]”: binds ([1]; miR-184 guide, letters put together from the description).
“GAAAAAAAAAAAAAAUCUACCUCUAAAU / UGAGGUAGUAGGUUGUAUAGU [let-7 / quantification target]”: binds ([1]; let-7 guide).
“GAAAAAAAAUAAAUAAAAGUGCCUUUAAAU / UAAGGCACGCGGUGAAUGCCAAG [miR-124 / quantification target]”: binds ([1]; miR-124 guide, letters put together from the description).
“GAAAAUUUUAAAAAAUCUGUGAUAAAAU / CAUCACAGUCUGAGUUCUUGC [miR-11 / quantification target]”: binds ([1]; miR-11 guide, letters put together from the description).
Sequence “GAUCUC / UGAGAUCAUUUUGAAAGCUGAUU [bantam / 6mer]” has a Kd ([2]; bantam guide) of 0.15 nM.
For “GAUCUCA / UGAGAUCAUUUUGAAAGCUGAUU [bantam / 7mer-A1]”, the Kd ([2]; bantam guide) was 0.052 nM.
“GCCUUA / UAAGGCACGCGGUGAAUGCCAAG [miR-124 / 6mer-A1]” was tested, and the Kd ([2]; miR-124 guide) was 0.646 nM.
With “GUGCCU / UAAGGCACGCGGUGAAUGCCAAG [miR-124 / 6mer-m8]” the Kd ([2]; miR-124 guide) was 0.299 nM.
Sequence “GUGCCUU / UAAGGCACGCGGUGAAUGCCAAG [miR-124 / 7mer-m8]” has a Kd ([2]; miR-124 guide) of 0.053 nM.
“GUGCCUUA / UAAGGCACGCGGUGAAUGCCAAG [miR-124 / 8mer]” gave a Kd ([2]; miR-124 guide) of 0.022 nM.
“UACCUC / UGAGGUAGUAGGUUGUAUAGU [let-7 / 6mer]” showed a Kd ([2]; let-7 guide) of 0.075 nM.
“UACCUCA / UGAGGUAGUAGGUUGUAUAGU [let-7 / 7mer-A1]” gave a Kd ([2]; let-7 guide) of 0.032 nM and a Kd ([3]; let-7 guide) of 0.0324 nM.
“UCCGUC / UGGACGGAGAACUGAUAAGGGC [miR-184 / 6mer-m8]” showed a Kd ([2]; miR-184 guide) of 0.413 nM and a Kd ([3]; miR-184 guide) of 0.409 nM.
“UCCGUCC / UGGACGGAGAACUGAUAAGGGC [miR-184 / 7mer-m8]” showed a Kd ([2]; miR-184 guide) of 0.014 nM.
In the case of “UCCGUCCA / UGGACGGAGAACUGAUAAGGGC [miR-184 / 8mer]”, the Kd ([2]; miR-184 guide) is reported as 0.01 nM.
Work on “UGAUCU / UGAGAUCAUUUUGAAAGCUGAUU [bantam / 6mer-m8]” yielded a Kd ([2]; bantam guide) of 1.36 nM and a Kd ([3]; bantam guide) of 1.36 nM.
“UGAUCUC / UGAGAUCAUUUUGAAAGCUGAUU [bantam / 7mer-m8]” showed a Kd ([2]; bantam guide) of 0.078 nM.
For “UGAUCUCA / UGAGAUCAUUUUGAAAGCUGAUU [bantam / 8mer]”, the Kd ([2]; bantam guide) was 0.03 nM and the Kd ([3]; bantam guide) was 0.0299 nM.
“UGCCUU / UAAGGCACGCGGUGAAUGCCAAG [miR-124 / 6mer]” was tested, and the Kd ([2]; miR-124 guide) was 0.571 nM.
“UGCCUUA / UAAGGCACGCGGUGAAUGCCAAG [miR-124 / 7mer-A1]” showed a Kd ([2]; miR-124 guide) of 0.242 nM and a Kd ([3]; miR-124 guide) of 0.242 nM.
In the case of “UGUGAUA / CAUCACAGUCUGAGUUCUUGC [miR-11 / 7mer-A1]”, the Kd ([2]; miR-11 guide) is reported as 0.092 nM, the Kd ([3]; miR-11 guide, 70 pM given in bulge section) is reported as 0.0917 nM and the Kd ([3]; miR-11 guide, 91.7 pM given in G:U section) is reported as 0.07 nM.
In the case of “UUACCUCA / UGAGGUAGUAGGUUGUAUAGU [let-7 / 8mer-w8]”, the Kd ([3]; let-7 guide) is reported as 0.0154 nM.
With “UUGUGAUA / CAUCACAGUCUGAGUUCUUGC [miR-11 / 8mer-w8]” the Kd ([3]; miR-11 guide) was 0.0612 nM.

Construct, isoform or probe ends are uncertain for at least one entry. For part of these data: At least one result comes from cells or an extract, where the contact may be indirect. For part of these data: At least one verdict was read from the data and is not stated in words by the source.
